Measured values from the supplement of paper PMC8426693.
The list shows a part of the results.

tested on: SARS-CoV-2 5_SL7 RNA; test: NMR binding call after quantification (hit when 2 of 3 NMR criteria are met) (binary (1 = binding, 0 = not binding)); higher = binding; conditions: RNA concentration 10 µM; fragment concentration 200 µM; 293 K

| Structure (SMILES) | NMR binding call |
| --- | --- |
| CC(=O)Nc1ccc(NC(=O)CC(C)C)cc1 | 0 |
| COc1ccc(CN2CCOCC2)cc1OC | 0 |
| CC1CC1C(=O)NCCc1ccc(Cl)cc1 (configuration not stated) | 0 |
| CNC(=O)CN1CCNCC1 | 0 |
| N#Cc1cccc(NC(=O)CCC2CCCC2)c1 | 0 |
| COCc1nnc(N)s1 | 0 |
| COc1cccc(C(=O)Nc2ccccc2F)c1 | 0 |
| CC(C)C(=O)NCC1CCCNC1 (configuration not stated) | 0 |
| CC(=O)NCCc1ccc(S(N)(=O)=O)cc1 | 0 |
| Cc1cc(C(=O)NC(C)C)nn1C | 0 |
| CCCn1c(NC(=O)CC)nc2ccccc21 | 0 |
| Cn1cc(Oc2ncncc2Cl)cn1 | 0 |
| NCc1ccccc1OC(F)(F)F | 0 |
| CC(=O)N1CCCC(C(N)=O)C1 (configuration not stated) | 0 |
| CS(=O)(=O)NC1(C(=O)O)CCCCC1 | 0 |
| CCOc1ccc(NC(=O)c2cnccn2)cc1 | 0 |
| Cn1nc(C(N)=O)c2ccccc21 | 0 |
| O=C(NCC1CCCO1)N1CCOCC1 (configuration not stated) | 0 |
| CC(C)Nc1nc2ccccc2[nH]1 | 0 |
| COc1cc(CN)cc(OC)c1OC.Cl | 0 |
| COc1ccc(NC2=NCCN2)cc1 | 0 |
| CC1CCOC1C(=O)Nc1cnns1 (configuration not stated) | 0 |
| CC(C)N(C)c1ncnc2c1cnn2C | 0 |
| CCOC(=O)c1ccoc1 | 0 |
| CC(NC1CC1)c1cccnc1 (configuration not stated) | 0 |
| COc1ccc(NC(=O)Nc2cccs2)cn1 | 0 |
| Cc1nc(CN2CC(F)CC2CN)cs1 (configuration not stated) | 0 |

Molecules listed so far containing sulfur (6):

| Structure (SMILES) | NMR binding call |
| --- | --- |
| COCc1nnc(N)s1 | 0 |
| CC(=O)NCCc1ccc(S(N)(=O)=O)cc1 | 0 |
| CS(=O)(=O)NC1(C(=O)O)CCCCC1 | 0 |
| CC1CCOC1C(=O)Nc1cnns1 (configuration not stated) | 0 |
| COc1ccc(NC(=O)Nc2cccs2)cn1 | 0 |
| Cc1nc(CN2CC(F)CC2CN)cs1 (configuration not stated) | 0 |
